Results are given in words; binding and its absence hold for the method and conditions named. Binding seen in cells or lysates may run through a third protein. Some results given as binding are weak or reduced against the parent protein; the word gives no strength. Where a sequence is shown, tags or fusion partners need not be part of it.
Target: T1, Nuclear protein 1 (NUPR1), Flag-tagged (human) (UniProt O60356)
T1 sequence: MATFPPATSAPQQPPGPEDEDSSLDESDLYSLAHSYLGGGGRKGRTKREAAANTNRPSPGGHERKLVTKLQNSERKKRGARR
Test: proximity ligation; MiaPaCa-2 cells on coverslips transfected with NUPR1-Flag and MSL1-V5; one day later treated with Oxaliplatin (10 uM) to induce DNA damage together with DMSO or Compound (1 to 20 uM); PLA 24 h later with antibodies against Flag and V5 (DuoLink kit); red dots counted with ImageJ

B1: Male-specific-lethal protein 1 (MSL1), V5-tagged (protein, UniProt Q68DK7 1-614)
chain: MTMRSAVFKAAAAPAGGNPEQRLDYERAAALGGPEDEPGAAEAHFLPRHRKLKEPGPPLASSQGGSPAPSPAGCGGKGRGLLLPAGAAPGQQEESWGGSVPLPCPPPATKQAGIGGEPAAAGAGCSPRPKYQAVLPIQTGSLVAAAKEPTPWAGDKGGAASPAATASDPAGPPPLPLPGPPPLAPTATAGTLAASEGRWKSMRKSPLGGGGGSGASSQAACLKQILLLQLDLIEQQQQQLQAKEKEIEELKSERDTLLARIERMERRMQLVKKDNEKERHKLFQGYETEEREETELSEKIKLECQPELSETSQTLPPKPFSCGRSGKGHKRKSPFGSTERKTPVKKLAPEFSKVKTKTPKHSPIKEEPCGSLSETVCKRELRSQETPEKPRSSVDTPPRLSTPQKGPSTHPKEKAFSSEIEDLPYLSTTEMYLCRWHQPPPSPLPLRESSPKKEETVARCLMPSSVAGETSVLAVPSWRDHSVEPLRDPNPSDLLENLDDSVFSKRHAKLELDEKRRKRWDIQRIREQRILQRLQLRMYKKKGIQESEPEVTSFFPEPDDVESLMITPFLPVVAFGRPLPKLTPQNFELPWLDERSRCRLEIQKKQTPHRTCRK
In the case of B1, the binding is reported as “binds”.

Source: paper PMC5213423, “Identification of a Drug Targeting an Intrinsically Disordered Protein Involved in Pancreatic Adenocarcinoma” (Scientific Reports, 2017)
